# Test results as given in the supplement of paper PMC10735217.
# Where a name gives a salt, the structure may show the parent alone. The list shows a part of the results. Single values are uncertain here, since repeats match poorly.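 The human kidney-derived cells carry a stably integrated construct of eight TEAD-binding elements driving luciferase, read by luminescence in a drug-repurposing library screen. A compound counts as a hit when its signal is more than five robust Z scores above the plate mean.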
# Tested on: HEK293A TEAD-LUC reporter
# Experiment: TEAD-luciferase reporter activity (YAP activation), robust Z score vs plate; higher = stronger YAP/TEAD activation
# Details: 24 h
SMILES,TEAD-luciferase reporter activity (compound concentration: 200 nM),TEAD-luciferase reporter activity (compound concentration: 2 uM),TEAD-luciferase reporter activity (compound concentration: 10 uM)
CCCCN1C[C@H](OC(=O)CCC)[C@@H](OC(=O)CCC)[C@H](OC(=O)CCC)[C@H]1COC(=O)CCC,inactive: -1.13,inactive: -1.69,inactive: -0.153
NCC(=O)[O][Cu][O]C(=O)CN [Cupric Glycinate],inactive: -0.91,inactive: 3.13,inactive: -1.28
Clc1ccc(C2=CCCNC23CCCCC3)cc1,inactive: -0.503,inactive: -1.24,inactive: -0.113
COc1ccc(C[C@@H]2NC(=O)[C@H](CC(=O)O)NC(=O)CNC(=O)[C@H](CCCNC(=N)N)NC(=O)[C@@H]3CCCN3C(=O)[C@H](CC(N)=O)NC(=O)[C@@H](NC(C)=O)CSSC[C@@H](C(N)=O)NC(=O)[C@H](CCCNC(=N)N)NC2=O)cc1,inactive: 1.6,inactive: -1.04,inactive: -0.907
CNC(=O)O[C@H]1COc2ccc(N3CCN(C4COC4)CC3)cc2[C@@H]1NC(=O)c1ccc(F)cc1,inactive: 0.283,inactive: 2.16,inactive: 0.67
C#C[C@H](CC(=O)OCC)NC(=O)CCC(=O)Nc1ccc(C(=N)N)cc1 [Xemilofiban Hydrochloride],inactive: -0.964,inactive: -1.13,inactive: -0.801
CCS(=O)(=O)N1CCC[C@@H]2CN3CCc4cc(OC)ccc4[C@@H]3C[C@@H]21,inactive: 0.942,inactive: 0.472,inactive: -1.56
CCO[C@@H]1OC(=O)CC1NC(=O)[C@@H]1CCCN1C(=O)[C@@H](NC(=O)c1ccc(N)c(Cl)c1)C(C)(C)C (some centres not stated) [Belnacasan],–,inactive: -0.748,–
CCO[C@@H]1OC(=O)CC1NC(=O)[C@@H]1CCCN1C(=O)[C@@H](NC(=O)c1ccc(N)c(Cl)c1)C(C)(C)C (some centres not stated),inactive: -0.221,–,inactive: -1.53
OC[C@H]1O[C@@H]2O[C@H]3[C@H](O)[C@@H](O)[C@@H](O[C@H]4[C@H](O)[C@@H](O)[C@@H](O[C@H]5[C@H](O)[C@@H](O)[C@@H](O[C@H]6[C@H](O)[C@@H](O)[C@@H](O[C@H]7[C@H](O)[C@@H](O)[C@@H](O[C@H]8[C@H](O)[C@@H](O)[C@@H](O[C@H]1[C@H](O)[C@H]2O)O[C@@H]8CO)O[C@@H]7CO)O[C@@H]6CO)O[C@@H]5CO)O[C@@H]4CO)O[C@@H]3CO [Benexate cyclodextrin],inactive: -0.959,inactive: -0.723,inactive: 0.411
COc1ccc(C2CC(=O)c3c(O)cc(O)cc3O2)cc1O (configuration not stated),inactive: -0.641,inactive: -1.22,inactive: 1.82
CC(C)c1cccc(C(C)C)c1NC(=O)NCC1(c2ccc(OP(=O)(O)O)cc2)O[C@H](C)[C@@H](C)O1,inactive: -1.09,inactive: -0.293,inactive: 0.226
CC(CC[C@@]1(O)OC2CC3C4CC[C@H]5CC(O[C@@H]6O[C@H](CO)[C@@H](O[C@@H]7O[C@@H](C)[C@H](O)[C@@H](O)[C@H]7O)[C@H](O)[C@H]6O[C@@H]6O[C@@H](CO)[C@H](O)[C@@H](O)[C@H]6O)CC[C@]5(C)C4CC[C@]3(C)C2[C@@H]1C)CO[C@@H]1O[C@H](CO)[C@@H](O)[C@H](O)[C@H]1O (some centres not stated),inactive: -0.184,inactive: -1.4,inactive: -1.41
O=C1N=C2C=CC=CN2C12Cc1ccccc1C2,inactive: -0.45,inactive: -0.682,active: 8.18
CC(CNC(=O)c1cccnc1)NC(=O)c1cccnc1 (configuration not stated) [nicaraven],inactive: -0.0581,inactive: -0.427,inactive: -1.48
CCc1oc2ccccc2c1C(=O)c1ccc(O)cc1,inactive: 0.273,inactive: 0.0427,inactive: -1.15
CC(C)c1ccc(C(=O)N=C(N)N)cc1S(C)(=O)=O [Cariporide mesilate],–,inactive: 0.203,–
CC(C)c1ccc(C(=O)N=C(N)N)cc1S(C)(=O)=O,inactive: 0.599,–,inactive: -0.801
CCS(=O)(=O)N1CCN(c2ccc(Nc3ncc(C(N)=O)c(NC4CC4)n3)cc2)CC1 [Cerdulatinib],inactive: 3.65,active: 11.2,active: 13.4
CN(C)CC/C=C1/c2ccccc2CSc2ccccc21 [dosulepine],inactive: -1.33,inactive: -1.03,inactive: -1.59
O=C(Nc1ccccc1)c1cc(Br)cc(Br)c1O [Metabromsalan],inactive: 0.0975,inactive: -1.66,inactive: -0.365
N=C(NO)N/N=C/c1c(Cl)cccc1Cl,inactive: -0.548,inactive: -0.788,inactive: 2.13
N=C(N)N/N=C/c1c(Cl)cccc1Cl [guanabenz acetate],–,inactive: -1.21,–
N=C(N)N/N=C/c1c(Cl)cccc1Cl [Guanabenz acetate],inactive: -3.1,–,inactive: 0.423
NC(=O)c1cccnc1 [niacinamide],–,inactive: -0.758,–
NC(=O)c1cccnc1,inactive: -2.57,–,inactive: -1.2

SMILES,TEAD-luciferase reporter activity (compound concentration: 200 nM),TEAD-luciferase reporter activity (compound concentration: 2 uM),TEAD-luciferase reporter activity (compound concentration: 10 uM)
Cc1[nH]c(CO)c(-c2ccc(Oc3ccc(OC(F)(F)F)cc3)cc2)c(=O)c1Cl,inactive: -0.876,inactive: -0.938,inactive: 0.915
C[C@@H](O)[C@H](N)C(=O)N[C@@H](CCCCN)C(=O)N1CCC[C@H]1C(=O)N[C@@H](CCCNC(=N)N)C(=O)O,inactive: -0.969,inactive: -0.498,inactive: -0.0037
COc1cccc(C(=O)N2CCC(C(=O)N3CCC(N4CCCC4=O)CC3)CC2)c1,inactive: -0.776,–,inactive: -1.53
Cc1occc(=O)c1[O][V](=[O])[O]c1c(C)occc1=O,inactive: 1.86,inactive: 0.21,active: 6.08
CCOc1ccc(NC(=O)CC(C)O)cc1 (configuration not stated),inactive: 1.16,inactive: -0.812,inactive: -1.03
CCC(C)(C)C(=O)O,active: 6.03,inactive: -0.705,inactive: -0.3
N#Cc1ccc(C(=O)CC2CCN(CC3CC3)CC2)cc1,inactive: -0.853,inactive: -1.56,inactive: 2.07
NC1CN(c2c(F)cc3c(=O)c(C(=O)O)cn(C4CC4)c3c2Cl)C1,active: 5.29,inactive: -0.152,inactive: -1.16
Cc1cc(NC(=O)C2=C(OC(=O)C(C)C)c3ccccc3S(=O)(=O)N2C)no1,inactive: 3.31,inactive: 1.56,inactive: -1.48
CC(C(N)C(=O)NC(C(=O)O)C1O[C@H](n2ccc(=O)[nH]c2=O)[C@H](O)[C@@H]1O)C(O)c1ccc(O)cn1 (some centres not stated) [Neopolyoxin C],inactive: 4.28,inactive: -0.847,inactive: 0.0839
N=C(N)NCCN1CCCCCCC1 [Guanethidine monosulfate],inactive: 3.99,inactive: -1.22,inactive: 1.4
OC[C@H](O)[C@@H](O)CO [erythritol],inactive: -1.79,inactive: -1.11,inactive: 1.65
CC[C@@H](C)Nc1cc(C(=O)N[C@H]2C[C@H]3CC[C@@H](C2)N3c2ccc(C(=O)C3CC3)cn2)c(C)cc1C(N)=O,inactive: -4.02,inactive: -1.87,inactive: 2.11
Cc1ccc(C(=O)Oc2ccc(C(O)CNC(C)(C)C)cc2OC(=O)c2ccc(C)cc2)cc1 (configuration not stated) [bitolterol mesilate],inactive: -1.23,inactive: 0.856,inactive: -0.684
O=C1[C@@H]2[C@H]3CC[C@H](C3)[C@@H]2C(=O)N1C[C@@H]1CCCC[C@H]1CN1CCN(c2nsc3ccccc23)CC1 [lurasidone hydrochloride],inactive: -1.25,inactive: -0.32,inactive: 4.2
CCSC1=C(C(=O)O)N2C(=O)[C@H]([C@@H](C)O)[C@H]2S1,inactive: -1.26,inactive: -0.412,inactive: 0.512
CCOC(=O)O[C@]1(C(=O)COC(=O)CC)CC[C@H]2[C@@H]3CCC4=CC(=O)C=C[C@]4(C)[C@H]3[C@@H](O)C[C@@]21C [prednicarbate],inactive: -1.38,active: 5.74,inactive: 2.71
Clc1ccc2oc(C(c3ccccc3Cl)n3ccnc3)cc2c1 (configuration not stated),inactive: -1.52,inactive: -0.905,inactive: -0.633
Cc1nc(C)c(P2(=O)O[C@H](C)C[C@@H](C)O2)c(-c2cccc([N+](=O)[O-])c2)c1C(=O)OCCN1CCN(C(c2ccccc2)c2ccccc2)CC1 (some centres not stated),inactive: -0.632,inactive: -0.845,inactive: 1.05
CNC(=O)c1c(I)c(NC(C)=O)c(I)c(C(=O)O)c1I [Iotalamic acid],–,inactive: -1.04,–
CNC(=O)c1c(I)c(NC(C)=O)c(I)c(C(=O)O)c1I,inactive: 0.702,–,inactive: 1.17
C[C@]12CC[C@@H]3c4ccc(OC(=O)c5cccnc5)cc4CC[C@H]3[C@@H]1CC[C@@H]2OC(=O)c1cccnc1 [Estradiol-dinicate],inactive: -1.98,inactive: 0.63,inactive: -0.181
CCCCC[C@H](O)/C=C/[C@H]1[C@H](O)CC(=O)[C@@H]1C/C=C\CCCC(=O)O [Prostaglandin E2],inactive: 1.06,inactive: 1.23,inactive: 2.04
CS(=O)(=O)c1ccc(C(CC2CCCC2)C(=O)Nc2cnc(C(O)CO)cn2)cc1Cl (configuration not stated),inactive: -0.895,inactive: 0.229,inactive: 0.647
Clc1ccc([C@@H]2CNCc3cc(-c4ccc5ncnn5c4)ccc32)cc1Cl,inactive: -0.792,inactive: 0.405,inactive: 0.222

# Some values from above.
# Entry of Clc1ccc([C@@H]2CNCc3cc(-c4ccc5ncnn5c4)ccc32)cc1Cl under TEAD-luciferase reporter activity (compound concentration: 200 nM): inactive: -0.792
# Entry of N=C(N)NCCN1CCCCCCC1 [Guanethidine monosulfate] under TEAD-luciferase reporter activity (compound concentration: 2 uM): inactive: -1.22
